# Screen size: about 320,000 compounds; about 22,000 (6.9%) were called active. The shares of active, inactive and inconclusive entries below differ from those in the screen. The call rests on the fitted dose curve; in most records, active means well fitted inhibition curve with a large enough effect; inconclusive means small, poorly fitted or top-dose-only effect, or another doubt; inactive means no such curve, though single readings can be large or run the other way. A potency beside an inconclusive call is a rough fit, not a confirmed value.
# Assay: Primary qHTS for delayed death inhibitors of the malarial parasite plastid, 96 hour incubation
# Settings: P. falciparum luciferase reporter growth; series mostly up to 28.7 µM
# Excerpt: The goal of this screen is to discover new antimalarial compounds that act by inhibiting the development of the apicoplast in the malarial parasite Plasmodium falciparum. The biochemical processes that make this organelle essential for erythrocytic stage parasites are not well understood. However, antibiotics such as azithromycin and tetracycline, which target the apicoplast translational machinery, have a potent antimalarial effect.
# We have developed a cell-based assay that measures parasite growth based on the expression of an integrated copy of a firefly luciferase reporter. To detect small molecules that cause this "delayed death" phenotype, erythrocytes infected with the luciferase-expressing parasites were incubated with compounds for either one or two generations, corresponding to 48 and 96 hours, respectively. Compounds that inhibit parasite growth in the second generation, but not the first, should be enriched in antimalarials that target the apicoplast. Growth inhibition is detected by a decrease in luciferase activity.
# Assay Provider: David Fidock and Eric Ekland, Columbia University
# Keywords: NIH Roadmap, MLPCN, MLI, MLSMR, qHTS, NCGC, qHTS, malaria, luciferase, viability
# Four microliters of infected erythrocytes (2% hematocrit, 0.05% parasitemia final concentration) in culture medium were dispensed and the plates incubated for 96 hours at 37 C in 5% CO2. Two microliters of luciferase detection reagent was added and luminescence was detected by a ViewLux (PerkinElmer) reader.
# On the % scale 0 is the no-effect control and ±100 the full control effect; potency means the concentration at half of the fitted maximal effect.
Compound,Potency,"activity change, negative = inhibition"
CC1CCN(S(=O)(=O)c2cnc[nH]2)CC1,"inconclusive: 9.28 µM [inhibitor, partial curve]",
CCOc1ccccc1N1CCN(C(=O)c2c(CC)noc2C)CC1,inactive,
O=C(COc1ccccc1Cl)NCc1ccccc1,"inconclusive: 4.15 µM [inhibitor, single point]",
Cc1cccc(OCCCSc2nc3ccc(C)cc3[nH]2)c1,inactive,
COCc1nc2ccccc2n1Cc1c(F)cccc1Cl,"inconclusive: 18.5 µM [inhibitor, single point]",
CCN(CC)c1ccc(N=Cc2ccccc2[N+](=O)[O-])cc1,inactive,
CSC1=C(C#N)C(c2cccc(Br)c2)CC(=O)N1 (stereo not drawn),"inconclusive: 18.5 µM [inhibitor, partial curve, poor fit]",
Cc1ccc(N(CC(=O)NCCc2ccccc2)C(=O)c2csnn2)cc1,"inconclusive: 16.5 µM [inhibitor, single point]",
COc1cc(CCC(=O)N2CCN(c3ncccn3)CC2)cc(OC)c1OC,,inactive: -21.1% [at 5.75 µM]
CC1(C)Cn2c(nnc2-c2ccccc2)S1,"inconclusive: 18.5 µM [inhibitor, single point]",
COc1ccc(/C=C/C(=O)NC(CCSC)C(=O)O)cc1 (stereo not drawn),"inconclusive: 18.5 µM [inhibitor, single point]",
Cc1nn(C)c2ncc(C(N)=O)c(Oc3ccc(Cl)cc3)c12,inactive,
O=C(CSC1=Nc2ccccc2C2=NC(CC(=O)NCc3ccco3)C(=O)N12)NCC1CCCO1 (stereo not drawn),"inconclusive: 18.5 µM [inhibitor, single point]",
O=C(Nc1cccc(Cl)c1N1CCOCC1)c1cccnc1Cl,inactive,
CC(=O)N1CCN(c2nc(CC(C)C)c3c(c2C#N)CCC3)CC1,"inconclusive: 4.15 µM [inhibitor, single point]",
O=C(C1=C[C@@H]2[C@H]3C(=O)N(c4ccccc4Cl)C(=O)[C@H]3[C@@H](C(=O)c3ccc(Cl)cc3)N2C=C1)c1ccccc1,"inconclusive: 11.7 µM [inhibitor, single point]",
Cc1ccnc(-n2c(C)nc3ccccc3c2=O)c1,inactive,
C/C(=N\NC(=O)CN1CCN(S(=O)(=O)c2ccc(C)cc2)CC1)c1ccncc1,"inconclusive: 18.5 µM [inhibitor, single point]",
C#CCOCCOCCOCCNc1nc(N2CCN(C(=O)CCCCCCCCCCNC(=O)[C@H]([C@@H](C)CC)n3cc(CCCCN=C(N)N)nn3)CC2)nc(N2CCN(C(=O)CCCCCCCCCCNC(=O)[C@H]([C@@H](C)CC)n3cc(CCCCN=C(N)N)nn3)CC2)n1,active: 4.15 µM,
CC12CN3CCN(CC(C3)/C1=N\NC(=O)c1ccccc1N)C2,inactive,
O=C(CSc1nnc(-c2ccncc2)n1Cc1ccccc1)Nc1nccs1,"inconclusive: 0.928 µM [inhibitor, partial curve, poor fit]",
CCOC(=O)C1=C(COC(=O)/C=C/c2ccc(OCC)c(OC)c2)NC(=O)NC1C (stereo not drawn),"inconclusive: 18.5 µM [inhibitor, single point]",
N#Cc1c2n(c3c(N)ncnc13)CCCCC2,inactive,

Compound,Potency,"activity change, negative = inhibition"
O=C(CN1C(=O)c2ccccc2C1=O)NCc1ccncc1,"inconclusive: 18.5 µM [inhibitor, single point]",
Cn1nc(-c2ccc(OCC(=O)N3CCN(Cc4ccccc4)CC3)cc2)c2ccccc2c1=O,"inconclusive: 4.65 µM [inhibitor, partial curve, poor fit]",
CN1C(=O)N(C)c2ccc(C=O)c3cccc1c23,"inconclusive: 2.33 µM [inhibitor, full curve]",
Cc1ccccc1CNS(=O)(=O)c1ccc2c(c1)C(C)(C)C(=O)N2C,"inconclusive: 10.4 µM [inhibitor, single point]",
CCCCCCn1c(=O)c(C(=O)Nc2cnccn2)c(O)c2ccccc21,"inconclusive: 11.7 µM [inhibitor, single point]",
c1ccc(Cc2c[nH]c3ccccc23)cc1,"inconclusive: 18.5 µM [inhibitor, single point]",
O=c1/c(=C/c2ccc(O)cc2)sc2nc3cc(Br)cnc3n12,"inconclusive: 10.4 µM [inhibitor, partial curve, poor fit]",
CN1CCOc2cc(S(=O)(=O)Nc3ccc(F)cc3)ccc21,inactive,
CCOc1ccc(C(=O)NC(=S)Nc2cc(C)ccn2)cc1[N+](=O)[O-],inactive,
CC(=O)C1=C(O)C(=O)N(c2ccc(S(=O)(=O)Nc3nccs3)cc2)C1c1ccc([N+](=O)[O-])cc1 (stereo not drawn),"inconclusive: 14.7 µM [inhibitor, single point]",
COc1cc2c(cc1OC)C1(CCCC1)C(N)=C2C#N,"inconclusive: 18.5 µM [inhibitor, single point]",
CCOC(=O)CNC(=O)Cn1cnc2c(nnn2-c2ccc(F)cc2)c1=O,"inconclusive: 18.5 µM [inhibitor, single point]",
CCCOc1ccc(CN(C(=O)c2cccc(OC)c2)C2CCS(=O)(=O)C2)cc1 (stereo not drawn),"inconclusive: 2.33 µM [inhibitor, partial curve, poor fit]",
O=C(Nc1nc(-c2ccccc2)cs1)C1COc2ccccc2O1 (stereo not drawn),inactive,
COC(=O)[C@H](Cc1c[nH]c2ccccc12)NC(=O)Nc1ccccc1OC,inactive,
COc1ccc(-c2cc(C(=O)Nc3c(C)nn(Cc4ccc(Cl)cc4)c3C)no2)cc1,"inconclusive: 18.5 µM [inhibitor, single point]",
CCN(CC)C(=O)CSc1nc2c(sc(=S)n2-c2ccccc2OC)c(=O)n1-c1ccccc1,"inconclusive: 1.65 µM [inhibitor, full curve]",
Cc1ccccc1NC(=O)c1nc(S(C)(=O)=O)ncc1Cl,active: 13.1 µM,
NC(=S)N/N=C/c1ccc(-c2cccc([N+](=O)[O-])c2)o1,"inconclusive: 8.28 µM [inhibitor, partial curve, poor fit]",
CCCNCC(O)Cn1c2ccccc2n2c(=O)cc(C)c(C#N)c12 (stereo not drawn),active: 11.7 µM,
COc1cc(NC(=O)c2cccs2)cc(OC)c1,active: 10.4 µM,
COc1ccc(CN2CC(C(=O)NCCN3CCN(c4ccccc4F)CC3)CC2=O)cc1 (stereo not drawn),"inconclusive: 13.1 µM [inhibitor, single point]",
COc1ccc(OC)c(S(=O)(=O)n2nc(-c3ccccc3)cc2N)c1,"inconclusive: 20.8 µM [inhibitor, partial curve, poor fit]",

# Some of the entries so far, with bars between the fields.
Compound | Potency | activity change, negative = inhibition
CC(=O)C1=C(O)C(=O)N(c2ccc(S(=O)(=O)Nc3nccs3)cc2)C1c1ccc([N+](=O)[O-])cc1 (stereo not drawn) | inconclusive: 14.7 µM [inhibitor, single point] | 
COc1cc2c(cc1OC)C1(CCCC1)C(N)=C2C#N | inconclusive: 18.5 µM [inhibitor, single point] | 
CCOC(=O)CNC(=O)Cn1cnc2c(nnn2-c2ccc(F)cc2)c1=O | inconclusive: 18.5 µM [inhibitor, single point] | 
CCCOc1ccc(CN(C(=O)c2cccc(OC)c2)C2CCS(=O)(=O)C2)cc1 (stereo not drawn) | inconclusive: 2.33 µM [inhibitor, partial curve, poor fit] | 

# The results go on.

Compound,Potency,"activity change, negative = inhibition"
CSC(=S)N/N=C/c1ccc(Br)cc1,"inconclusive: 2.08 µM [inhibitor, partial curve, poor fit]",
Fc1ccc(NC(=S)Nc2ccc(Br)cc2)cc1,"inconclusive: 14.7 µM [inhibitor, single point]",
Cc1ccc(Oc2ncccc2CO)cc1,inactive,
CCOc1ccc(C(=O)NCC(=O)NCCCSc2ccccc2)cc1OCC,active: 14.7 µM,
COC(=O)c1cc(NC(=O)Nc2ccccc2)ccc1Cl,"inconclusive: 11.7 µM [inhibitor, single point]",
COC(=O)CSc1nc(-c2ccccc2)cc(-c2ccco2)c1C#N,"inconclusive: 0.329 µM [inhibitor, full curve]",
CCCC(=O)c1ccc(-c2ccccc2)cc1,inactive,
COc1cccc(NS(=O)(=O)c2ccc3c(c2)C2C=CCC2C(c2ccc(C(=O)O)cc2)N3)c1 (stereo not drawn),inactive,
CN(Cc1ccccc1NS(=O)(=O)c1ccc2ccccc2c1)C1CCCCC1,"inconclusive: 13.1 µM [inhibitor, partial curve]",
Cc1nn(-c2ccccc2)c(C)c1C(=O)OCC(=O)c1c(N)n(CC(C)C)c(=O)n(C)c1=O,"inconclusive: 8.28 µM [inhibitor, partial curve, poor fit]",
Cc1c(C(=O)N2CCN(CC(=O)Nc3ccccc3Cl)CC2)oc2ccc(Br)cc12,"inconclusive: 11.7 µM [inhibitor, single point]",
COC/C=C/C1=CC2=CC(=O)C(C)(OC(=O)c3cnc4ccccc4n3)C(=O)C2=CN1c1ccccc1 (stereo not drawn),"inconclusive: 18.5 µM [inhibitor, single point]",
CCCOc1ccc(-c2c(=O)n(OCc3ccc([N+](=O)[O-])cc3)c3ccccc3[n+]2[O-])cc1,"inconclusive: 18.5 µM [inhibitor, single point]",
COc1ccc(N(C(=O)CCl)C(C)(C(=O)Nc2c(C)cccc2C)c2ccccn2)cc1 (stereo not drawn),"inconclusive: 14.7 µM [inhibitor, single point]",
O=C1NCCN1CCNS(=O)(=O)c1ccc(F)c(Cl)c1,inactive,
CCc1cc2c(s1)N(CC(=O)OC)C(=O)CN=C2c1ccccc1OC,active: 8.28 µM,
O=C(NCCc1ccccc1)C(c1ccccc1)N(C(=O)c1csnn1)C1CC1 (stereo not drawn),"inconclusive: 9.28 µM [inhibitor, partial curve]",
COc1ccc(S(=O)(=O)NC(CC(=O)NCc2ccc3c(c2)OCO3)c2ccco2)cc1 (stereo not drawn),"inconclusive: 2.94 µM [inhibitor, partial curve]",
COc1ccc(-c2noc(Cc3ccc(Cl)cc3)n2)cc1OC,"inconclusive: 11.7 µM [inhibitor, partial curve]",
CC1(C)N=c2ccc([N+](=O)[O-])c(N)c2=[N+]1[O-],"inconclusive: 13.1 µM [inhibitor, partial curve]",
C=CCn1c(SCc2ccc(Cl)cc2)nc2c1c(=O)[nH]c(=O)n2C,"inconclusive: 10.4 µM [inhibitor, partial curve, poor fit]",
CS(=O)(=O)c1ccc2nc(NC(=O)c3cccc(Cl)c3)sc2c1,inactive,
